Data: patent US7348421B1, “Methods for production of p-hydroxybenzoate in bacteria” (North Carolina State University, priority 2000, dated 2008)
For part of these data: At least one compound was matched to its structure with a doubt left. Some of these results come from one statement about several compounds together.

Legend:
[1] = system: Pseudomonas putida DOT-T1E; experiment: Tolerance to organic solvents in liquid LB medium; type: cell-based; conditions: wild-type, solvent 0.3% (vol/vol), 24 h
[2] = system: Pseudomonas putida DOT-T1E; experiment: Halo-inhibition test with antibiotic disks on minimal medium; type: cell-based; conditions: wild-type

| Compound | turbidity of the culture at 660 nm [1] | tolerance/sensitivity to antibiotic [2] |
| --- | --- | --- |
| CCc1ccccc1 [ethylbenzene] | above 1.5 units | – |
| Cc1ccc(C)cc1 [p-xylene] | above 1.5 units | – |
| CO[C@H]1/C=C/O[C@@]2(C)Oc3c(C)c(O)c4c(O)c(c(/C=N/N5CCN(C)CC5)c(O)c4c3C2=O)NC(=O)/C(C)=C\C=C\[C@H](C)[C@H](O)[C@@H](C)[C@@H](O)[C@@H](C)[C@H](OC(C)=O)[C@@H]1C [rifampicin] | – | tolerant |
